# Primary screen of a compound library

Source: ChEMBL document CHEMBL3988442, “University of Dundee, Small-Polar-MMV Screening Library” (2021).

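Whole-cell growth test on Mycobacterium tuberculosis, read after 3 days in glucose-containing 7H9 medium; the read-out is not stated. Concentration: 500 µM. Higher reads as more growth inhibition (inferred: compounds with an IC50 in retests scored well above the rest). About 18,000 compounds were tested under these conditions; 7.9% (about 1,400) showed 50% or more at least once.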

Values are the deposited “Percent Effect”, in %. How 0% and 100% were set is not recorded. Most values in the screen are low, and negative values occur. Compounds were drawn at random from those tested, without regard to their results.

| # | compound | percent effect |
|---|---|---|
| 1 | `Cc1noc(C)c1S(=O)(=O)N(C)Cc1ccoc1` | 41.17% |
| 2 | `COCCN1CCN(CCS(=O)(=O)C(F)(F)F)CC1` | 103% |
| 3 | `COc1cccc(N2CCNCC2)c1F` | 23.12% |
| 4 | `NCCC1CN(C(=O)Cc2cccc(Cl)c2)CCO1` (stereo not given) | 33.38% |
| 5 | `NC1CCN(C(=O)c2ccncc2)C1` (stereo not given) | -5.849% |
| 6 | `CN(CCO)c1ccncc1` | -1.353% |
| 7 | `CNCc1ccc(N)nc1` | -10.16% |
| 8 | `CCc1ccc(O)c(C(=O)NCC2CCS(=O)(=O)C2)c1` (stereo not given) | 42.91% |
| 9 | `OCC1CCCN(c2ncccn2)C1` (stereo not given) | 12.63% |
| 10 | `Cc1ccc(Cl)cc1NC(=O)CN1CCNC(=O)C1` | -12.13% |
| 11 | `CCC(CC)C(CN)N(C)C` (stereo not given) | 75.06% |
| 12 | `CN(C)c1ccc(NC(=O)NCC(F)(F)F)nc1` | -18.58% |
| 13 | `CCC(CNC(=O)c1cnccn1)N1CCCC1` (stereo not given) | 7.733% |
| 14 | `NC1CCCN(c2ccccc2F)C1=O` (stereo not given) | 14.12% |
| 15 | `O=C([C@@H]1CCCN1CCn1cncn1)N1CCOCC1` | -10.49% |
| 16 | `CCC(CC)c1cc(N)on1` | 19.27% |
| 17 | `Cn1ncc2c(N)ncnc21` | 1.602% |
| 18 | `Cc1ccc(NC(=O)CN2CCCC2=O)nc1` | 9.348% |
| 19 | `CNC(=O)[C@@H]1C[C@H](N)CN1S(=O)(=O)N1CCCCC1` | 9.85% |
| 20 | `CNCC(=O)Nc1cc(F)c(OC)cc1OC` | 7.505% |
| 21 | `NCC1CSc2ccccc2O1` (stereo not given) | 48.53% |
| 22 | `COCCCNC(=O)C(C)N(C)CC(C)C` (stereo not given) | 10.4% |
| 23 | `Nc1nccnc1C(=O)N(CC1CC1)c1ccccc1` | 1.849% |
| 24 | `Cc1noc(C)c1CNS(=O)(=O)N1CCSCC1` | -3.302% |
| 25 | `CS(=O)(=O)N1CCCN(Cc2nccn2C2CC2)CC1` | 4.489% |
| 26 | `COc1cc(F)ccc1NC(=O)C1CCOCC1` | 16.44% |
| 27 | `CCOc1cccc(CS(=O)(=O)Cc2cc(C)no2)n1` | -5.475% |
| 28 | `COc1ccccc1CCC(=O)N[C@@H]1CCNC[C@H]1O` | 9.238% |
| 29 | `Cn1c(CO)nnc1SCC=Cc1ccccc1` | 75.58% |
| 30 | `Cc1ccsc1C(=O)N(C)Cc1cn[nH]c1` | 14.92% |
| 31 | `C1CN[C@H]2COC[C@H]2C1` | -2.419% |
| 32 | `c1cncc(-c2nc(SCC3CCCCO3)n[nH]2)c1` (stereo not given) | 64.2% |
| 33 | `CCOc1ccc(Cl)cc1CNc1nnnn1C` | 34.25% |
| 34 | `CC(C)c1ncc(C(=O)NC2C=CS(=O)(=O)C2)cn1` (stereo not given) | 11.24% |
| 35 | `CSC1(CNC(=O)NCc2ccco2)CCOCC1` | 31.11% |
| 36 | `CC1CCCN(Cc2cc(=O)n(C)c(=O)n2C)CC1` (stereo not given) | 25.53% |
| 37 | `CN(C)c1ccc(C(=O)NC[C@@H]2CCCO2)cn1` | 20.64% |
| 38 | `NC1(c2noc(C(F)(F)F)n2)CCCC1` | -5.515% |
| 39 | `CSCC(=O)Nc1ccc(N2CCN(C)CC2)cc1C` | 10.19% |
| 40 | `CCC1CCCCN1C(=O)CSc1nnnn1C1CC1` (stereo not given) | 35.34% |
| 41 | `O=S(=O)(Cc1ccccn1)Cc1ccccc1Cl` | 23.94% |
| 42 | `c1csc(N2CCC(NCCN3CCOCC3)CC2)n1` | -8.455% |
| 43 | `O=C(c1cc(C2CC2)on1)N1CC(O)(C2CC2)C1` | 69.13% |
| 44 | `COc1cccc(CNc2ccccc2CO)n1` | 53.71% |
| 45 | `CCn1c(C(=O)N2CCC(O)CC2)cc2ccccc21` | 31.54% |
| 46 | `CC(=O)N(Cc1noc(C(C)C)n1)C1CCNC1` (stereo not given) | 10.77% |
| 47 | `COCCN1CC(C(=O)NCCC(C)C)CC1=O` (stereo not given) | 1.148% |
| 48 | `CC(N)CCN1CCN(C)CC1` (stereo not given) | -12.02% |
| 49 | `CCCNC(=O)NCCc1noc(-c2cccnc2)n1` | -5.495% |
| 50 | `CNC(=O)c1cc(C2CC2)nn1-c1ccccc1` | 41.62% |
| 51 | `CCCn1c(O)nnc1SCc1cccc(OC)n1` | 57.05% |
| 52 | `CCC(O)Cc1ccncc1` (stereo not given) | 0.8217% |
| 53 | `CN(C)C(=O)c1cc(-c2cccs2)on1` | 53.88% |
| 54 | `NCCc1ccc(-n2cccn2)cc1` | 73.55% |
| 55 | `Nc1cnc(CC2CC(=O)N(c3ccccc3)C2)cn1` (stereo not given) | 20.93% |
| 56 | `Cc1cc(NC(=O)CNC(C)c2ccncc2)n(C)n1` (stereo not given) | -5.212% |
| 57 | `CC(CN)CNC(=O)OC(C)(C)C` (stereo not given) | 16.1% |
| 58 | `Cc1cccc(N(CCC(N)=O)C(=O)C2CCC2)c1` | 34.59% |
| 59 | `NC(=O)c1ccc(CNC2CCCc3sccc32)o1` (stereo not given) | 23.71% |
| 60 | `COc1cc(Br)cnc1C#N` | 1.581% |
| 61 | `CN1CCCCC1CCC(=O)NCCn1cccc1` (stereo not given) | -4.685% |
| 62 | `Cc1cc(C(=O)N2CCN(CC(C)O)CC2)on1` (stereo not given) | -3.076% |
| 63 | `CC(=O)Nc1ccnn1Cc1ccccc1F` | -1.572% |
| 64 | `CC(C)(C)CC(N)CN` (stereo not given) | 11.86% |
| 65 | `CCOc1cccc(NC(=O)CCOC)n1` | 24.49% |
| 66 | `CCCN(C)C(=O)c1cc(CN2CCOCC2)on1` | 5.675% |
| 67 | `CCOC(=O)c1cc(NC(=O)C2CC2)c[nH]1` | 26.36% |
| 68 | `Cc1nc(C)c(C(=O)N2CCCC[C@H](N(C)C)C2)o1` | 6.106% |
| 69 | `CNc1snc(C)c1C(=O)N1CCC2(CC1)OCCO2` | -1.688% |
| 70 | `CN(C)[C@@H]1CN(Cc2ccccc2C#N)CC[C@@H]1CO` | 18.22% |
| 71 | `O=C(N[C@H]1CCCNC1)c1cccc(F)c1Cl` | 11.84% |

7 of the entries, repeated:

* O=C([C@@H]1CCCN1CCn1cncn1)N1CCOCC1 | -10.49%
* CC(CN)CNC(=O)OC(C)(C)C (stereo not given) | 16.1%
* Cc1cc(NC(=O)CNC(C)c2ccncc2)n(C)n1 (stereo not given) | -5.212%
* NC1CCN(C(=O)c2ccncc2)C1 (stereo not given) | -5.849%
* CN1CCCCC1CCC(=O)NCCn1cccc1 (stereo not given) | -4.685%
* CC(=O)Nc1ccnn1Cc1ccccc1F | -1.572%
* COc1cccc(N2CCNCC2)c1F | 23.12%